Values of other authors as cited in patent US20170107179A1 (Tetraphase Pharmaceuticals, Inc., priority 2010, published 2017).
For at least one compound, name, drawing or mass did not settle the structure. Marks after values point to notes of the source that are not given here.

Tested on: Staphylococcus aureus ATCC29213
Details: with Cation adjusted Mueller-Hinton; cited from earlier work

Compound: CN(C)[C@@H]1C(O)=C(C(N)=O)C(=O)[C@@]2(O)C(O)=C3C(=O)c4c(O)cccc4[C@@](C)(O)[C@H]3C[C@@H]12 [Tetracycline, tetracycline]
- Expected MIC Range: 0.12-1**
